Test results as given in patent US10023554B2, “Halogen-substituted heterocyclic compound salt” (UBE INDUSTRIES, LTD., priority 2014, dated 2018).
pIC50: −log10 of the molar value. Some of these results come from one statement about several compounds together.

Key:
[1] = system: LPA-induced histamine release; assay: LPA-induced histamine release test in mice; assay type: in vivo; conditions: male CD1 mice, oral, dose of 10 mg/kg, LPA i.v. 4 hours after the administration
[2] = system: A2058 human melanoma cells; assay: Cell migration test (LPA-induced migration, Chemo-Tx); assay type: cell-based; conditions: LPA final concentration 100 nM, 3 hours at 37° C., read-out: concentration (IC50) of the test compound required for 50% inhibition of the cell migration activity of LPA
Procedure: The cell migration test was carried out using Chemo-Tx (registered trademark) (116-8, Neuro Probe). A2058 human melanoma cells (obtained from European Collection of Cell Culture) were cultured in a serum-free EMEM medium for 24 hours, and were re-suspended in a 0.1% BSA-containing DMEM medium to give a cell suspension. The test compounds dissolved in DMSO in various concentrations were each added to the cell suspension, and the suspensions were cultured at 37° C. for 15 minutes (final DMSO concentration 0.5%). LPA dissolved in a 0.1% BSA-containing DMEM medium (final concentration 100 nM) was added to a Chemo-Tx 96 well plate, and a Chemo-Tx filter coated with 0.001% Fibronectin on both sides was placed onto the plate. The cultured cell suspensions (25,000 cells) were added onto the upper surface of the filter and were further cultured at 37° C. for 3 hours. Thereafter, the cells on the upper surface of the filter were removed. After the filter was removed and was dried, the cells which had migrated to the lower surface of the filter were stained with Diff-Quik stain (16920, Sysmex). The absorbance of the filter (570 nm) was measured and the concentration (IC50) of the test compound required for 50% inhibition of the cell migration activity of LPA was determined by non-linear regression analysis using EXSAS (version 7.6.0, Arm Systex).

Molecule	efficacy rate (%): rate of individuals which showed the inhibition rate of 80% or more (plasma histamine) [1]	pIC50 [2]
COc1cc(-c2sc(Cl)cc2NC(=O)O[C@H](C)c2ccccc2)ccc1-c1ccc(C2(C(=O)[O-])CC2)cc1.[K+] [Example 2, Potassium (R)-1-[4′-(5-chloro-3-{[(1-phenylethoxy)carbonyl]amino}thiophen-2-yl)-2′-methoxy-[1,1′-biphenyl]-4-yl]cyclopropanecarboxylate]	≥ 50%	
1/2 Calcium (R)-1-[4′-(5-chloro-3-{[(1-phenylethoxy)carbonyl]amino}thiophen-2-yl)-2′-methoxy-[1,1′-biphenyl]-4-yl]cyclopropanecarboxylate [Example 3]	≥ 50%	≥ 6.70
